Experimental data taken from PubChem BioAssay AID493014 (National Center for Advancing Translational Sciences (NCATS), 2011).
The list shows a part of the results. Shown are side measurements of this screen, not its main read-out; they come without a call. The list favours compounds with an active or inconclusive main result. Words in brackets tell the shape of the fitted curve; partial curves, single points and poor fits give uncertain potencies.

Experiment: qHTS Assay to Find Inhibitors of Chronic Active B-Cell Receptor Signaling
Settings: ABC-DLBCL IkBa-CBG/CBR reporter, luminescence ratio (green luciferase fused to IkBa over red control in TMD8 lymphoma cells), 4 h; measured here: CBR red luminescence, cell number
Summary of the method: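 Concentration-response series (up to 46 uM) were applied to TMD8 dual-reporter cells for 4 h at 37C with doxycycline. Green/red ratio, after filter-overlap correction, defined %Activity; red signal alone was normalised to basal cells and zero luminescence.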

Compound	AC50
CN(Cc1ccccc1)C(=S)NC(=O)c1ccc(-c2ccccc2)cc1	4.61 µM [rising, full curve, poor fit]
COc1cc(C2C(C#N)=C(N)N(Nc3ccccc3)C3=C2C(=O)CC(C)(C)C3)ccc1OCc1ccccc1 (stereo not drawn)	4.47 µM [falling, full curve]
COc1ccc(Br)cc1C(=O)Nc1ccccc1-c1ccccc1	15.8 µM [rising, single point]
COc1ccc(N2CC(C(=O)Nc3ccccc3C(=O)NC3CC3)CC2=O)cc1 (stereo not drawn)	15.8 µM [rising, single point]
CCc1ccc(C(=O)N/N=C/c2ccc(Cl)cc2Cl)nc1	2.06 µM [rising, partial curve, poor fit]
O=C(c1ccc(N2CCOCC2)cc1)c1cccs1	16.4 µM [falling, partial curve]
CC(C)CNS(=O)(=O)c1ccc(CCC(=O)N2CCN(Cc3ccc4c(c3)OCO4)CC2)cc1	32.6 µM [falling, single point]
O=C(Nc1ccc(-c2noc(COc3ccccc3Cl)n2)cc1)c1ccco1	29.1 µM [rising, single point]
CC(/C=N/Nc1ncc(C)c(=O)[nH]1)=C\c1ccccc1	10 µM [falling, partial curve]
CCc1nnc(NC(=O)c2nc(S(=O)(=O)Cc3ccc(C)cc3)ncc2Cl)s1	35.5 µM [falling, partial curve, poor fit]
Cn1nnnc1SCC(=O)Nc1ncc(C(F)(F)F)cc1Cl	3.26 µM [rising, full curve, poor fit]
C=CCc1cccc2cc(C(=O)NC3CCCC3)c(=O)oc12	12.6 µM [falling, partial curve, poor fit]
O=C(NCc1ccccc1)c1ccc(-c2ccc(F)cc2)o1	29.1 µM [falling, single point]
Cc1ccccc1CC1(CO)CCCN(Cc2ccccc2Cl)C1 (stereo not drawn)	2.82 µM [rising, partial curve, poor fit]
COCC(=O)n1nc(-c2ccccc2)nc1NCc1cccs1	12.6 µM [falling, single point]
O=C(CS(=O)(=O)c1ccccc1)N1CCCCCC1	11.6 µM [rising, partial curve, poor fit]
Cc1ccc(S(=O)(=O)c2c(COC(=O)c3cccc(Cl)c3)c(-c3ccccc3)nn2C)cc1	6.51 µM [rising, single point]
Clc1cccc(/C=N/Nc2ncnc3ccccc23)c1	5.62 µM [falling, partial curve, poor fit]

Taken from above:
Cc1ccccc1CC1(CO)CCCN(Cc2ccccc2Cl)C1 (stereo not drawn) | AC50: 2.82 µM [rising, partial curve, poor fit]
COc1ccc(Br)cc1C(=O)Nc1ccccc1-c1ccccc1 | AC50: 15.8 µM [rising, single point]
